According to patent publication US20250122255A1:
These are yes or no findings as the source states them, for the method shown. In cells and extracts the contact can be indirect. Some entries that bind do so weakly or less than the wild type. Where a sequence is shown, tags or fusion partners need not be part of it.

Experiments:
[1] = target: PP4R3β, regulatory subunit of the protein phosphatase 4 (PP4) complex (human) (UniProt Q5MIZ7); experiment: co-immunoprecipitation, western blot
[2] = target: T1, PP4R3α, regulatory subunit of the protein phosphatase 4 (PP4) complex (human) (UniProt Q6IN85); experiment: co-immunoprecipitation, western blot
T1 sequence (looked up): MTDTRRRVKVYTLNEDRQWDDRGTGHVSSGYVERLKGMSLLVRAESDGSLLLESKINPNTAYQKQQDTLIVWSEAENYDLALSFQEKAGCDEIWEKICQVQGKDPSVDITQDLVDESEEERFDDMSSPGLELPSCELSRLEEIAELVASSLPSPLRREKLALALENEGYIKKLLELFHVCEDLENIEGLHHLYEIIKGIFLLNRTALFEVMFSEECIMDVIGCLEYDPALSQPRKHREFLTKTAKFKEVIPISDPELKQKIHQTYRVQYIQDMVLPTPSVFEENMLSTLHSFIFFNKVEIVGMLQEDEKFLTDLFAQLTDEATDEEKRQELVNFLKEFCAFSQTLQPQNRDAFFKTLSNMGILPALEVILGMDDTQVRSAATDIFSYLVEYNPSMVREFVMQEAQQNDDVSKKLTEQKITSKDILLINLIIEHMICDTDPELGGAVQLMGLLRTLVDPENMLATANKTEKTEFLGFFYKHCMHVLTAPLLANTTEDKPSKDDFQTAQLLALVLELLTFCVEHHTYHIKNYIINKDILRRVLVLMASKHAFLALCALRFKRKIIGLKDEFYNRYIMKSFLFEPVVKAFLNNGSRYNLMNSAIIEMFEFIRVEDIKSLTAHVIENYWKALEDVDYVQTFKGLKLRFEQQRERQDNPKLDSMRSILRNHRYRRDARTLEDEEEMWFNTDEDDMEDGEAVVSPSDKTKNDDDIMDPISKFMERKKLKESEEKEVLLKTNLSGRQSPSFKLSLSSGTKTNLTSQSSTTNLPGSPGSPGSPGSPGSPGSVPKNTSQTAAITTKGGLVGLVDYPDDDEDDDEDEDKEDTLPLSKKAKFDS

binding [1]: binds
binding [2]: binds
B1: C-terminally tagged CT45A5 (V5 tag) (protein, not shown: small tags and cut ends)
chain: MTDKTEKVAVDPETVFKRPRECDSPSYQKRQRMALLARKQGAGDSLIAGSAMSKEKKLMTGHAIPPSQLDSQIDDFTGFSKDGMMQKPGSNAPVGGNVTSSFSGDDLECRETASSPKSQREINADIKRKLVKELRCVGQKYEKIFEMLEGVQGPTAVRKRFFESIIKEAARCMRRDFVKHLKKKLKRMI
